Source: patent US10857119B2, “Composition containing monoacetyldiacylglycerol compound as active ingredient for inhibiting blood cancer or metastasis” (ENZYCHEM LIFESCIENCES CORPORATION, priority 2013, dated 2020)
At least one structure is not confirmed: it was looked up by name or label, or the drawing left a doubt.

Experiments:
STAT-6 [1] = molecular target: T1, STAT-6 (Homo sapiens, UniProt P42226); test: Western blot of STAT-6 phosphorylation induced by IL-4; format: cell-based; conditions: A549, U937 and Jurkat cells; EC-18 pre-treatment, IL-4 stimulation
T1 construct: STAT-6 is phosphorylated in A549 cells of epithelial cells and U937 and Jurkat cells of immune cells; endogenous in cells; host or cells: U937, A549, Jurkat
T1 sequence (P42226 1-847): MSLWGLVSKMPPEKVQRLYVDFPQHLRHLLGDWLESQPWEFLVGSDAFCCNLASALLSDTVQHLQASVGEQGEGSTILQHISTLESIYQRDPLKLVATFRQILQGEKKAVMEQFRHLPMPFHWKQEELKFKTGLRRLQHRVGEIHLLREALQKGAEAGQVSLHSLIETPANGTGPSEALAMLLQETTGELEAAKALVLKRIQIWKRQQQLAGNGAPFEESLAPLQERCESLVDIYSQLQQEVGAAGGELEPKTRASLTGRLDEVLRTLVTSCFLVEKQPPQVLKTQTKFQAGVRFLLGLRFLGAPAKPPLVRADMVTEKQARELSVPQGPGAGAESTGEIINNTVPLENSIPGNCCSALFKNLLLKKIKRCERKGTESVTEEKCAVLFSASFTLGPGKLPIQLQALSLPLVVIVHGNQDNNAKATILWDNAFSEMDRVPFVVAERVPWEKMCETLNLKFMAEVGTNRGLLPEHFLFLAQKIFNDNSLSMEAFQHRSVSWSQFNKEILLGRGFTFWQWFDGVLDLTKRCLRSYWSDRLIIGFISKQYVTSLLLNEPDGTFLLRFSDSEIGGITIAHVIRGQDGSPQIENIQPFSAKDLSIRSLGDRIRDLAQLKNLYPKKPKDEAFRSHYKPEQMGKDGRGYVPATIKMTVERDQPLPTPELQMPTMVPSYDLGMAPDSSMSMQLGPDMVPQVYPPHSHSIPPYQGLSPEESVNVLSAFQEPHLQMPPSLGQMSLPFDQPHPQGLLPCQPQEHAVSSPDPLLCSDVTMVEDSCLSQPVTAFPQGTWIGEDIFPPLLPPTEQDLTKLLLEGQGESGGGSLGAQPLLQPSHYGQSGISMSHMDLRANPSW

STAT-6 [2] = molecular target: T1, STAT-6; test: STAT-6 activation luciferase reporter (p4×STAT6-Luc2P); format: cell-based; conditions: HEK293 and A549 cells; EC-18 pre-treatment 1 hour, 10 ng/ml IL-4, 6 hours; compared to IL-4 alone
STAT-1 [3] = molecular target: T2, STAT-1 (Homo sapiens, UniProt P42224); test: STAT-1 activation luciferase reporter (pGL4.45[luc2P/ISRE/Hygro]); format: cell-based; conditions: HEK293 and A549 cells; EC-18 pre-treatment 1 hour, 10 ng/ml IFN-γ, 6 hours
T2 construct: cells were transfected with p4×STAT6-Luc2P and pGL4.45[luc2P/ISRE/Hygro]; endogenous in cells; host or cells: HEK293, A549
T2 sequence (P42224 1-750): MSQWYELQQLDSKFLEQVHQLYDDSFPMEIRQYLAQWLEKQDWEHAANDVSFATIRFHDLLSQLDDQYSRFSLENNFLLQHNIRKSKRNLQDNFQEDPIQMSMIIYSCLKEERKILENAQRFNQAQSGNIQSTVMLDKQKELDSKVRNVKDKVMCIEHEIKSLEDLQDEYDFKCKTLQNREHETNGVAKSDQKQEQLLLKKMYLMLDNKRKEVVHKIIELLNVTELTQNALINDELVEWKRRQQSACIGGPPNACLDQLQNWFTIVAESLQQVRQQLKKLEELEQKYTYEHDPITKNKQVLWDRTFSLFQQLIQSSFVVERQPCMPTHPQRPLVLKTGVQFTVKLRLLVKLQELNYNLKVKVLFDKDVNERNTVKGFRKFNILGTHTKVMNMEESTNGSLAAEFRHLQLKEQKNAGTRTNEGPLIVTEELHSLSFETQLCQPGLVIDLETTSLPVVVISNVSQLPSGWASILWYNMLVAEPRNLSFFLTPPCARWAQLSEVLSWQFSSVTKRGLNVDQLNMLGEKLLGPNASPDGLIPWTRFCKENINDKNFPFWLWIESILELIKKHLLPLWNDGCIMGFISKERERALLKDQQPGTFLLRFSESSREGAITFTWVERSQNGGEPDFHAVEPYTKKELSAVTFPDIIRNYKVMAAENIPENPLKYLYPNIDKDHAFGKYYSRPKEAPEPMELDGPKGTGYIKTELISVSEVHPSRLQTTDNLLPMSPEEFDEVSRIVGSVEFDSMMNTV

rat IL-4 = test: IL-4 secretion by ELISA in RBL-2H3 cells; format: cell-based; conditions: 0.1 to 10 μg/Ml EC-18, antigen induced, 6 h, 15 h and 24 h
Protocol: The cells were treated with 0.1 μg/Ml to 10 μg/Ml EC-18 for 1 hour and antigen was processed. After the incubation for 18 hours at 37° C., the cell was removed to obtain a supernatant. The quantification of rat IL-4 which was present in the cell culture medium of RBL-2H3 cells was made by carrying out enzyme-linked immunosorbent assay (ELISA) according to the protocol indicated by the manufacturer using commercially purchasable monoclonal antibody (mAb) (BD Biosciences).

STAT-1 [4] = molecular target: T2, STAT-1; test: Western blot of STAT-1 phosphorylation induced by IFN-γ; format: cell-based; conditions: U937 cell; IFN-γ stimulation
RPMI 8226 cells = test: Tumor growth inhibition in nude mice transplanted with RPMI 8226 cells; format: in vivo, male nude mice
IL-4 = IL-4 mRNA expression by RT-PCR in RBL-2H3 cells; format: cell-based, rat; conditions: 0.01, 0.1, 1.0 and 10 μg/Ml EC-18 for 1 hour, then antigen, 3 hours
[5] = sepsis animal model, cecal-ligation-puncture; cited from earlier work
[6] = 500 mg/kg oral once a day for 4 weeks, compared to negative control group

Q: What does the source list for `CCCCC/C=C\C/C=C\CCCCCCCC(=O)OC(COC(C)=O)COC(=O)CCCCCCCCCCCCCCC` (stereo not shown) [EC-18, 1-palmitoyl-2-linoleoyl-3-acetylglycerol]?
A: amount of phosphorylated STAT-6 (STAT-6 [1]): decreased by the pre-treatment of EC-18 in a concentration-dependent manner; Luciferase fluorescence (STAT-6 activity) (STAT-6 [2]): decreased; Luciferase fluorescence of the STAT-1 (STAT-1 [3]): maintained; secretion of IL-4 expressed at each time (rat IL-4): decreased in a EC-18 concentration-dependent manner; phosphorylation of STAT-1 (STAT-1 [4]): no phosphorylation decrease; tumor volume (RPMI 8226 cells; [6]): significantly suppressed; tumor weight (RPMI 8226 cells; [6]): statistically significant small; size of the tumor (photograph) (RPMI 8226 cells; blood cancer model mice, after administration of EC-18, FIG. 8): reduced in similar to the positive control; expression of IL-4 transcript (IL-4): reduced in proportion to the concentration of the EC-18; survivability ratio of animals [5]: increases survivability ratio
